Results on 40 targets are retold here after the supplement of paper PMC7666118.

The chains behind the UniProt entries cited, without tags or fusion partners. Where a name states a change or a piece, a line headed by the entry shows the natural chain unless it says otherwise.
UniProt P07902: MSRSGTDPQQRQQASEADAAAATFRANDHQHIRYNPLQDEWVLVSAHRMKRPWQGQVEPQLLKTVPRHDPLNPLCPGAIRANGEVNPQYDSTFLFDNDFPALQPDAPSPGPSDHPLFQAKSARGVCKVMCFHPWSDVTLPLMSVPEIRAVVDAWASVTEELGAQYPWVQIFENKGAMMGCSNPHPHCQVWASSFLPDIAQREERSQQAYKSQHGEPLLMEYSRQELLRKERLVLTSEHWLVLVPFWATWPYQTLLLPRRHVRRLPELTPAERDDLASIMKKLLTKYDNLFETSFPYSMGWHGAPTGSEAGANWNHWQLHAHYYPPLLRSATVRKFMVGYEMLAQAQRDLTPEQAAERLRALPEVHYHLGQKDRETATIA
UniProt O95749: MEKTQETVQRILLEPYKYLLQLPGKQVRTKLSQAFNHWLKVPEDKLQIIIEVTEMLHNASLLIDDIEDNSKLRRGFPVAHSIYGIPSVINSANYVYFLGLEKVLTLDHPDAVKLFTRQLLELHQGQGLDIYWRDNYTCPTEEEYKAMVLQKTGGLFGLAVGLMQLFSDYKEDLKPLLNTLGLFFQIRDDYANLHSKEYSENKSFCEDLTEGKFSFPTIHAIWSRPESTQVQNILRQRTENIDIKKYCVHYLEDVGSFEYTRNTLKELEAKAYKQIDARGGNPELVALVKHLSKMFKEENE
UniProt O14653: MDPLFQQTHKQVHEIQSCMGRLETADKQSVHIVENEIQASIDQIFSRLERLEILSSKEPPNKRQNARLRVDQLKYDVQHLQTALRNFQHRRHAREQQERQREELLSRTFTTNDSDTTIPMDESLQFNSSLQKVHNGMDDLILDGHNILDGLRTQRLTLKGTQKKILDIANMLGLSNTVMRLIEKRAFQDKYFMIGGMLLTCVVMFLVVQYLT
UniProt P48637: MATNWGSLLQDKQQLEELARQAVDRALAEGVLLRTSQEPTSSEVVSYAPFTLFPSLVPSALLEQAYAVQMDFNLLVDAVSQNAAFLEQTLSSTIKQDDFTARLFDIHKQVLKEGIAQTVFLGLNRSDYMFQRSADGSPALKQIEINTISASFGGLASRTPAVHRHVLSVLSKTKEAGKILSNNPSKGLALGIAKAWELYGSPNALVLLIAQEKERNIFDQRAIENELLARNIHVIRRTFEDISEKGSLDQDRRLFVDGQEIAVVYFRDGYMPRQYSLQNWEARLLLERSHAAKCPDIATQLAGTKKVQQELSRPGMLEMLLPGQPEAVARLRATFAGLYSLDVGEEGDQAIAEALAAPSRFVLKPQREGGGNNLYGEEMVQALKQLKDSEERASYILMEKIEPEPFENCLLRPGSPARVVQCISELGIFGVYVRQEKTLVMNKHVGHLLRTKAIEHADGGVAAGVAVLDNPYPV
UniProt Q7Z2K8: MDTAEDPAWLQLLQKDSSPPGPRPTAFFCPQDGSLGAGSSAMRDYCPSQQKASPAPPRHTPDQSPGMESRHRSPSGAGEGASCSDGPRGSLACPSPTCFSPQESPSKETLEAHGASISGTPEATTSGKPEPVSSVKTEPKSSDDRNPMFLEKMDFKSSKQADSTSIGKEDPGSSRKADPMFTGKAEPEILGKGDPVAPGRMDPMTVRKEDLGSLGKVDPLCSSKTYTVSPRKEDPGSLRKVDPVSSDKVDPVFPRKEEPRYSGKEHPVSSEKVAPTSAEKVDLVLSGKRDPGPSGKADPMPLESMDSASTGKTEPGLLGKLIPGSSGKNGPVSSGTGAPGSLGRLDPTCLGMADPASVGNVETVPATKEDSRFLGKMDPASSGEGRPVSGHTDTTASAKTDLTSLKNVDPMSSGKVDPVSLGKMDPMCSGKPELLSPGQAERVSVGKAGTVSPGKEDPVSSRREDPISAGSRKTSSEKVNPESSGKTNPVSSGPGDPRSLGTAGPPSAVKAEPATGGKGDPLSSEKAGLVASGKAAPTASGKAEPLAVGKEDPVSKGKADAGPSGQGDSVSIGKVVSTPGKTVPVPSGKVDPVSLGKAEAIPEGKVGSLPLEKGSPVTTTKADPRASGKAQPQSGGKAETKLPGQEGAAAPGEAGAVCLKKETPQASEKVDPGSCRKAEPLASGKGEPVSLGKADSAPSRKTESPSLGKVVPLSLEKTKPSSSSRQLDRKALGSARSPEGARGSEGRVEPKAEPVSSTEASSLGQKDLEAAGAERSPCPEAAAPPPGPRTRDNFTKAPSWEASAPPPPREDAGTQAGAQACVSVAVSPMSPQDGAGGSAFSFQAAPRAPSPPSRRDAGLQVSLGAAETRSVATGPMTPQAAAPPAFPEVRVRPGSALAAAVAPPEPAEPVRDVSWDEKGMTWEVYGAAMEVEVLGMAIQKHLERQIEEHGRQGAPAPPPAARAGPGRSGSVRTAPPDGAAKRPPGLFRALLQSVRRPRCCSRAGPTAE
UniProt Q53FT3: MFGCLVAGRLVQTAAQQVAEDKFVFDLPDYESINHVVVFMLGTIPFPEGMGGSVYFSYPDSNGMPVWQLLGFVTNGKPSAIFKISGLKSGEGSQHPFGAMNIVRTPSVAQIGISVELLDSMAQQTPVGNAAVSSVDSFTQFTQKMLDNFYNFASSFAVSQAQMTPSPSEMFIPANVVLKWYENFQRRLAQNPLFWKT
UniProt P26583: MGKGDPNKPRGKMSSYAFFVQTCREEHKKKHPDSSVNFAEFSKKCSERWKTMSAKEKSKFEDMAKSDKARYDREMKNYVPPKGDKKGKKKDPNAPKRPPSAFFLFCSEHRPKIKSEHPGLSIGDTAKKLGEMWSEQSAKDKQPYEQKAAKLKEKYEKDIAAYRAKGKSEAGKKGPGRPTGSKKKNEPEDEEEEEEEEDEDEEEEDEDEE
UniProt Q9BXV9: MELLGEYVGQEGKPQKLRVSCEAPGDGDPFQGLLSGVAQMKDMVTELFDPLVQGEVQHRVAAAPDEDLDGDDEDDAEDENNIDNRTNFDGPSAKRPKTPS
UniProt Q8NB37: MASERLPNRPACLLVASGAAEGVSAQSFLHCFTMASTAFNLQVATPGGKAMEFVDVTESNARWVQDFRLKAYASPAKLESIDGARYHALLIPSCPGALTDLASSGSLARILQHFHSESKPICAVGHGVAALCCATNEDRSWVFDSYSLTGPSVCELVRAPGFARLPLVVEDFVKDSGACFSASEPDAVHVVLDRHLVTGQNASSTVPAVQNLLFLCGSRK
UniProt Q04446: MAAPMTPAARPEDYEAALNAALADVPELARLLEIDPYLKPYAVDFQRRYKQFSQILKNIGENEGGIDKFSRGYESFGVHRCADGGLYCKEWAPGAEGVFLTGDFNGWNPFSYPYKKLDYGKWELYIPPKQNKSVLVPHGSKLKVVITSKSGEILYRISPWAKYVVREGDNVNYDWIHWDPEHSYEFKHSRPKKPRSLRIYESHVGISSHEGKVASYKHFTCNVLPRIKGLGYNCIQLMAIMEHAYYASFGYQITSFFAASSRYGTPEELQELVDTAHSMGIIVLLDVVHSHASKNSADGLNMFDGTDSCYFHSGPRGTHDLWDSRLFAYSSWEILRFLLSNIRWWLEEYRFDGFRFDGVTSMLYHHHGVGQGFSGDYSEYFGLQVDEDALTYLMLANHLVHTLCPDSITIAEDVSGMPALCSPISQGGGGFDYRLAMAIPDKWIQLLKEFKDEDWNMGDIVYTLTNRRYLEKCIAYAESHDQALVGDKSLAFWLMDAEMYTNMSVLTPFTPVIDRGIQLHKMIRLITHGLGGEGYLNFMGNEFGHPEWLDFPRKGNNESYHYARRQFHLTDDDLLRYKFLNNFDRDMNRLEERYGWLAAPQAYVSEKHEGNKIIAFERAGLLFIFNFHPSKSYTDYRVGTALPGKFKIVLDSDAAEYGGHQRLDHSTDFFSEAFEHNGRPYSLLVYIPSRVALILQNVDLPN
UniProt Q96EK6: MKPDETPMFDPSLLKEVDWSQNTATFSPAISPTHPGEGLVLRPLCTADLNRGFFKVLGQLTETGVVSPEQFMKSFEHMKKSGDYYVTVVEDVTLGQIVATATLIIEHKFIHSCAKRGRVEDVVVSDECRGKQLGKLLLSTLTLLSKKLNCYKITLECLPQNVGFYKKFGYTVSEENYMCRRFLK
UniProt P41250: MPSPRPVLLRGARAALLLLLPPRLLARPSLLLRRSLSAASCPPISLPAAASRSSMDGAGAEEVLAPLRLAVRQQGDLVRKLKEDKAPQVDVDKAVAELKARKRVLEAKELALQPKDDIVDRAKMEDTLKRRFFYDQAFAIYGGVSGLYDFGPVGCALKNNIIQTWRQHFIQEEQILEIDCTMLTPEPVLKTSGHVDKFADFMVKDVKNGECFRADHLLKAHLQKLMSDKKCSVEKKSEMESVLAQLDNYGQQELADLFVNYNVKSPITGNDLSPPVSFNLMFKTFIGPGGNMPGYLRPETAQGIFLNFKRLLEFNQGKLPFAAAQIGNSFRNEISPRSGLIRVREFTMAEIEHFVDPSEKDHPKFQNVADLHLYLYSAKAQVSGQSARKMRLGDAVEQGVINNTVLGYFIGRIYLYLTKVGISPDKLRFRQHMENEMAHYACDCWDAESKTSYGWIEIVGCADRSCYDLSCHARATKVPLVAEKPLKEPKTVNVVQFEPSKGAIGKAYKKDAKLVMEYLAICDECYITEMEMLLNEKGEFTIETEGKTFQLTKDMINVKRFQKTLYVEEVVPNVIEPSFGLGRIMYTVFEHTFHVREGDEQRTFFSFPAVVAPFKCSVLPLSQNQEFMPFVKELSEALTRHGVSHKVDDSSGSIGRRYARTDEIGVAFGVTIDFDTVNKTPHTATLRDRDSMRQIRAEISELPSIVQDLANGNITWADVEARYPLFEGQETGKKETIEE
UniProt Q9BRX5: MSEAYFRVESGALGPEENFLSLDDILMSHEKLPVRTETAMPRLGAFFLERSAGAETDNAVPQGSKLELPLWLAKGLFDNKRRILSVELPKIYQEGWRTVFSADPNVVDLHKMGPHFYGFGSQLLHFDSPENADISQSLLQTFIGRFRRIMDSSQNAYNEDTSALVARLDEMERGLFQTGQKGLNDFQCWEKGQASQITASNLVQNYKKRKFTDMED
UniProt P35914: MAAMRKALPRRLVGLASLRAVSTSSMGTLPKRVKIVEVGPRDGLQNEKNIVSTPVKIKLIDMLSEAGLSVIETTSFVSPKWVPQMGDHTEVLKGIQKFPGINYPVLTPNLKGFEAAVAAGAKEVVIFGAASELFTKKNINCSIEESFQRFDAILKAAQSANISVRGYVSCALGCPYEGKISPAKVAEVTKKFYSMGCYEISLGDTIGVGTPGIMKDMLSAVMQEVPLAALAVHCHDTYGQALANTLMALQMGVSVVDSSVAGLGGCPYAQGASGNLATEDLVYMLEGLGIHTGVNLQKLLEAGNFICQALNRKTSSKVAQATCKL
UniProt Q00341: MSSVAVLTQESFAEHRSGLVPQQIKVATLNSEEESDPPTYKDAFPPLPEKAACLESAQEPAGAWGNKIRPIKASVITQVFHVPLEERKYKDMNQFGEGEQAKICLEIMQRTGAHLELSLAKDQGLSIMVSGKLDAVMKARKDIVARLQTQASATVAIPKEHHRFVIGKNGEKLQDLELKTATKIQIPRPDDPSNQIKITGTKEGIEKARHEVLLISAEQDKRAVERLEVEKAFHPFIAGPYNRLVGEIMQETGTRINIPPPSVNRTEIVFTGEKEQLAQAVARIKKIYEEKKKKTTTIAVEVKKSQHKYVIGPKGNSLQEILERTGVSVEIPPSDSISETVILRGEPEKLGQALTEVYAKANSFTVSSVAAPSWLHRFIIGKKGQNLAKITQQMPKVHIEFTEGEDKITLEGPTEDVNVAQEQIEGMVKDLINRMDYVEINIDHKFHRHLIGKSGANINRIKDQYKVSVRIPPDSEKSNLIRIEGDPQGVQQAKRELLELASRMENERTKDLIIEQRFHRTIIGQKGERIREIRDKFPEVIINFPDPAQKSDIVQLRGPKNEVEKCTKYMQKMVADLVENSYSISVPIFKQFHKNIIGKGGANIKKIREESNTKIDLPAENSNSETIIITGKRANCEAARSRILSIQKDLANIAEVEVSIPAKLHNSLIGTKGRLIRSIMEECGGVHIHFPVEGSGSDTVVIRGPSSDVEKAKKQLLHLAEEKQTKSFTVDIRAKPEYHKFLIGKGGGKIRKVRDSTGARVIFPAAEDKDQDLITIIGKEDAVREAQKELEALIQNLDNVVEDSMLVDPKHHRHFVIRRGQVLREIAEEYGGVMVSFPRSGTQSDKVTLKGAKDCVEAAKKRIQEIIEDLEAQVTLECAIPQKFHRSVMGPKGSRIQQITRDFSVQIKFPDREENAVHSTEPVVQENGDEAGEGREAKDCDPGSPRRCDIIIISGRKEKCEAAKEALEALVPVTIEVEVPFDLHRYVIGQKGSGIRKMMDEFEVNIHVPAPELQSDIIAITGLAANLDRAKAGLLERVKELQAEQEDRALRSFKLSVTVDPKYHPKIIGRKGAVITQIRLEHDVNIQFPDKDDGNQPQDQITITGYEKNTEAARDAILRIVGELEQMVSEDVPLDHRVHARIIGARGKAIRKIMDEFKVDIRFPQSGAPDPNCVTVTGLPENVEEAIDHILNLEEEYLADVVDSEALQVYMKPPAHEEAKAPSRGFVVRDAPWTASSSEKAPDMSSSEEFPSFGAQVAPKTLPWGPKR

This is one part of the list.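 How the source made its calls: active = dose-dependent thermal stabilisation significant by F-test of dose-response against flat model at 10% FDR; inactive = not significant.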

Compound in the assay: Nc1nc2c(ncn2[C@@H]2O[C@H](COP(=O)(O)OP(=O)(O)OP(=O)(O)O)[C@@H](O)[C@H]2O)c(=O)[nH]1
The assay is described as follows: dose-dependent thermal stabilisation call (2D-TPP, DLPTP, 10% FDR) (binary (1 = stabilised)); higher = stabilised by the compound. As to conditions: system: Jurkat gel-filtered lysate; concentration range 1-500 µM. How it is done:
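2D thermal proteome profiling in gel-filtered Jurkat E6.1 lysate (2 mg/ml) treated with NaGTP (0, 1, 10, 100, 500 uM) for 10 min at room temperature, then heated 3 min at one of 12 temperatures (42-63.9 C). Soluble protein was quantified by TMT10 MS. The value is the DLPTP call of the paper: dose-dependent thermal stabilisation over all temperatures at 10% FDR (F-test of a dose-response against a flat model); one experiment, one call per tested protein.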
In the case of GALT (UniProt P07902), the “dose-dependent thermal stabilisation call” value is inactive: 0.
Consider GGPS1 (UniProt O95749), for which the “dose-dependent thermal stabilisation call” value was inactive: 0.
With G3BP1 (UniProt Q13283), the “dose-dependent thermal stabilisation call” value is inactive: 0.
Consider GOSR2 (UniProt O14653), for which the “dose-dependent thermal stabilisation call” value is inactive: 0.
The result for GLOD4 (UniProt Q9HC38) reads inactive: 0; that for GSS (UniProt P48637), active: 1.
Take GPRIN1 (UniProt Q7Z2K8): the “dose-dependent thermal stabilisation call” value is inactive: 0.
Consider HIKESHI (UniProt Q53FT3), for which the “dose-dependent thermal stabilisation call” value is inactive: 0.
With HMGA1 (UniProt P17096), the “dose-dependent thermal stabilisation call” value was inactive: 0.
The result for GINS2 (UniProt Q9Y248) reads inactive: 0; that for GOLGA4 (UniProt Q13439), inactive: 0; that for GSN (UniProt P06396), inactive: 0.
In the case of GORAB (UniProt Q5T7V8), the “dose-dependent thermal stabilisation call” value was inactive: 0.
The result for HMGB2 (UniProt P26583) reads inactive: 0; that for GNAS (UniProt P63092), active: 1.
GOLGB1 (UniProt Q14789): the “dose-dependent thermal stabilisation call” value was inactive: 0.
HACL1 (UniProt Q9UJ83): the “dose-dependent thermal stabilisation call” value is inactive: 0.
Consider GLMN (UniProt Q92990), for which the “dose-dependent thermal stabilisation call” value is inactive: 0.
With HAUS6 (UniProt Q7Z4H7), the “dose-dependent thermal stabilisation call” value is inactive: 0.
As for G6PD (UniProt P11413), the “dose-dependent thermal stabilisation call” value is inactive: 0.
Take GON7 (UniProt Q9BXV9): the “dose-dependent thermal stabilisation call” value was inactive: 0.
As to HNRNPL (UniProt P14866), the “dose-dependent thermal stabilisation call” value is active: 1.
For GATD1 (UniProt Q8NB37), the “dose-dependent thermal stabilisation call” value is inactive: 0.
Consider GMIP (UniProt Q9P107), for which the “dose-dependent thermal stabilisation call” value is active: 1.
The result for GEN1 (UniProt Q17RS7) reads inactive: 0; that for GTF2H2 (UniProt Q13888), inactive: 0.
The result for GBE1 (UniProt Q04446) reads inactive: 0; that for GIT2 (UniProt Q14161), active: 1.
As for HELB (UniProt Q8NG08), the “dose-dependent thermal stabilisation call” value was inactive: 0.
As for GNPNAT1 (UniProt Q96EK6), the “dose-dependent thermal stabilisation call” value was inactive: 0.
GTF2A2 (UniProt P52657): the “dose-dependent thermal stabilisation call” value was inactive: 0.
Turning to GLG1 (UniProt Q92896), the “dose-dependent thermal stabilisation call” value was inactive: 0.
The result for HADHA (UniProt P40939) reads inactive: 0; that for GARS (UniProt P41250), inactive: 0.
The result for HAUS1 (UniProt Q96CS2) reads inactive: 0; that for GINS3 (UniProt Q9BRX5), inactive: 0.
As to HMGCL (UniProt P35914), the “dose-dependent thermal stabilisation call” value was inactive: 0.
With GPALPP1 (UniProt Q8IXQ4), the “dose-dependent thermal stabilisation call” value was inactive: 0.
The result for GMPR2 (UniProt Q9P2T1) reads inactive: 0.
The result for HDLBP (UniProt Q00341) reads active: 1.
